According to the supplement of paper PMC12764529:
± gives the half width of the 95% confidence interval. The two proteases of the assay disagree for many of these sequences.

Tests used:
[1] = folding stability dG unfold from trypsin proteolysis; higher = more stable
Outline: (§1)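 Designed mini-proteins with no cysteine and under 80 residues were kept only if AlphaFold2 dimer inter-PAE was above 15. In a PA-tagged cDNA display construct, they were digested with trypsin and chymotrypsin and then sequenced. K50 was inferred by Bayesian fitting of counts, and unfolding free energy was derived per protease or combined against a sequence-predicted unfolded-state K50 and a shared folded-state K50.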

[2] = folding stability dG unfold from chymotrypsin proteolysis; higher = more stable
Outline: as §1

[3] = folding stability dG unfold (combined trypsin and chymotrypsin); higher = more stable
Outline: as §1

Row | Sequence | folding stability dG unfold [1] | folding stability dG unfold [2] | folding stability dG unfold [3]
1 | SAGGSAGGSAGGKILVITAKIEDIPEIIEAAKKLGIDSVIIDIPETKEKIIITKDSVKLISAGGSAGGSAGG [r7_564_TrMRF] | 1.54 ± 0.057 kcal/mol | 1.76 ± 0.089 kcal/mol | 1.63 ± 0.14 kcal/mol
2 | SAGGSAGGSAGGMIKTKDGKVLEFKSLEEALAALKELGVDEVEIEELEPEGVVKVKVKPSAGGSAGGSAGGS [r10_1191_TrROS_Hall] | 0.301 ± 0.03 kcal/mol | 1.34 ± 0.039 kcal/mol | 1.11 ± 0.11 kcal/mol
3 | SAGGSAGGAGPPLLATVTLTLDLDVPLEEDDEITVPVPFPDGSEATITALPEENTLVVTFRVTGSAGGSAGG [r6_482_TrMRF] | -1.51 ± 0.62 kcal/mol | 1.39 ± 0.079 kcal/mol | 0.673 ± 0.17 kcal/mol
4 | SAGGGYGWLMFSVPIKFEFNFRDPDGQPIGPWRMEITIMVYAPVPLPPPPPPKEEKVDPNDKNDEDADSAGG [r13_508_TrROS] | 2.67 ± 0.091 kcal/mol | 4.99 ± 0.083 kcal/mol | 4.63 ± 0.13 kcal/mol
5 | SAGGSAGGSAGKIEAFPGKNTVLLKISIPRRDPNSDSIYTLHAVIPATPEQAKKFLELGISAGGSAGGSAGG [r11_389_TrMRF] | 0.89 ± 0.041 kcal/mol | 0.899 ± 0.14 kcal/mol | 0.97 ± 0.1 kcal/mol
6 | SAGGSMKFKIKKIEVKVEKVTVTNENGEKKEFLKVEVKIEVEEEELSEEEKKKLEEEAEKLAKELASAGGSA [r2_40_TrROS_Hall] | 1.24 ± 0.18 kcal/mol | 3.26 ± 0.14 kcal/mol | 2.61 ± 0.29 kcal/mol
7 | SAGGSAGGSAGDEKYTLTVTIPVPKNAPVLVGAEKGYEVIDLNPDAPVEEGYITVKVEFGSAGGSAGGSAGG [r11_701_TrMRF] | -0.376 ± 0.086 kcal/mol | -0.833 ± 0.14 kcal/mol | -0.391 ± 0.15 kcal/mol
8 | SAGGSAGGSAGGLERSPDGATVIPIKFEFKIPVTKFDPADGEWEWETMKIKVEAYILIPPSAGGSAGGSAGG [r7_374_TrROS] | 2.36 ± 0.078 kcal/mol | 4.45 ± 0.12 kcal/mol | 4.19 ± 0.22 kcal/mol
9 | SAGGSAGGSAGGKIKVEVKKNKKTNKYTVTITVDGKKITLTFKSKEDAEEALKKLFPNLKSAGGSAGGSAGG [r7_841_TrROS_Hall] | 2.68 ± 0.11 kcal/mol | 4.7 ± 0.084 kcal/mol | 4.32 ± 0.085 kcal/mol
10 | SAGGSAGGSAKPEPVTIEFPIESPEEIKDFAEELAPPGMKVNHDPEEGLVKIWIPKDDIKESAGGSAGGSAG [r3_186_TrROS] | -0.563 ± 0.098 kcal/mol | 1.59 ± 0.039 kcal/mol | 1.13 ± 0.068 kcal/mol
11 | SAGGSAGGSMKVETLPGEFTITLPNGEEMKLTTEREIRPESGEIRVKITEPGTGKEYEEELPLSAGGSAGGS [r20_71_JUSTAS] | 2.7 ± 0.23 kcal/mol | 0.515 ± 0.13 kcal/mol | 1.25 ± 0.32 kcal/mol
12 | SAGGSAGGSADGNKPPEIKINLEVERHPNGMVEITATLHWPGGKEFPVRIMYNPDKIFIEISAGGSAGGSAG [r3_259_TrROS] | 2.95 ± 0.31 kcal/mol | 3.4 ± 0.16 kcal/mol | 3.19 ± 0.14 kcal/mol
13 | SAGGSYGWFPITVSFKIFVGGKIVWEFEVEIMIRVPIPPVPPIKVPPEARKAMENGDWEKAMKALGSAGGSA [r2_196_TrROS] | 1.36 ± 0.095 kcal/mol | 4.45 ± 0.19 kcal/mol | 3.46 ± 0.53 kcal/mol
14 | SAGGSAGGSMPVITVDPSIKEFKDEKGNKYLLTPVTVTLPNGVPVTVVYTTDPSTGKTTPATSGSAGGSAGG [r6_298_JUSTAS] | 0.671 ± 0.059 kcal/mol | 0.481 ± 0.12 kcal/mol | 0.62 ± 0.1 kcal/mol
15 | SKKKVTININITPGDPEQMEENVRWAIKEAAENDPDKEVTITIHFPPGHPEWMRWIKELFTKKGIPITIHSA [r9_1202_TrROS] | 2.88 ± 0.042 kcal/mol | 3.3 ± 0.037 kcal/mol | 3.16 ± 0.059 kcal/mol
16 | SAGGSAGGSAGPPPPTVTLTFKLEDGYYVELSYNLDTDEITVKVYNVKTNEKVAEFTFKLSAGGSAGGSAGG [r11_928_TrROS_Hall] | 1.04 ± 0.14 kcal/mol | 4.94 ± 0.16 kcal/mol | 4.55 ± 0.44 kcal/mol
17 | SAGGMTLEFTLPDGLRVRVELELRDGTLRLRVEVERDGELLTLELEIRLPPPPPPVVRAPSAEEAERASAGG [r13_691_TrROS_Hall] | 1.22 ± 0.1 kcal/mol | 3.32 ± 0.33 kcal/mol | 2.84 ± 0.63 kcal/mol
18 | SAGGSAGGSAGDNFKIKIESFNIMRLPDGYVMISIKIEITVGDKPVEITIMIIIPPGAPISAGGSAGGSAGG [r17_352_TrROS] | 4.03 ± 0.15 kcal/mol | 5.74 ± 0.18 kcal/mol | 5.68 ± 0.41 kcal/mol
19 | SAGGSAGGMVIEGRIKIVSPDGGEKEIPVVLFIPESFPDANLEELAEAIAKEILPPGYKADFEGSAGGSAGG [r6_821_TrMRF] | 0.601 ± 0.065 kcal/mol | 1 ± 0.023 kcal/mol | 0.879 ± 0.17 kcal/mol
20 | SAGGSAGGSMTILEEEVVPETGLVRILVKLPNGELLELEVDPSVGVTPVKVDGKPIFDVTVDPSAGGSAGGS [r12_789_JUSTAS] | 0.898 ± 0.038 kcal/mol | 1.3 ± 0.082 kcal/mol | 1.19 ± 0.11 kcal/mol
21 | SRIKISIFRPGKIIPEIPIKVDSVEEAVEKVLEYIRKFPPNAPYYIMIEVEHTDPANGQKQEGTVHIPIKSA [r9_245_TrROS] | 2.22 ± 0.059 kcal/mol | 4 ± 0.048 kcal/mol | 3.39 ± 0.12 kcal/mol

Row | Sequence | folding stability dG unfold [1] | folding stability dG unfold [2] | folding stability dG unfold [3]
22 | SAGMIEILELPPNKAIVKIYDPKTGKFEIIEIDFGGKDGKPLSLEELIEKIKKLAKELYPDLEINVTPLSAG [r5_293_TrMRF] | 3.28 ± 0.26 kcal/mol | 1.98 ± 0.063 kcal/mol | 2.61 ± 0.17 kcal/mol
23 | SAGGGDPVGRIRRRPVELTLELEVPEGREEVARALAEALRDLGVEVELTRRPDGRVRLRVRFEVGDFESAGG [r13_702_TrMRF] | 1.21 ± 0.031 kcal/mol | 3.82 ± 0.03 kcal/mol | 3.36 ± 0.046 kcal/mol
24 | SAGGSAPADPRPSRVRVFLPALGLEVEVEVTTFADGTVVAHLGFPGPYLLTVTVTPTGATATLVAGSAGGSA [r2_109_TrMRF] | 1.53 ± 0.15 kcal/mol | 4.01 ± 0.052 kcal/mol | 3.53 ± 0.11 kcal/mol
25 | SAGGVEEIVEKLPEEAEEVEITSEPHPLPGSTLTKYTIKAKNSATGKTKTYEVTVLYDPEGNVLEVLLSAGG [r13_358_JUSTAS] | 1.7 ± 0.061 kcal/mol | 2.74 ± 0.082 kcal/mol | 2.22 ± 0.19 kcal/mol
26 | SAEIEELAKALGAEVEIEEKDGKVKITIRLEGADDPNKEFTFEFKLENGETLKVKLVMKNGKIVKIEVESAG [r14_401_TrROS_Hall] | 2.96 ± 0.26 kcal/mol | 5.08 ± 0.16 kcal/mol | 4.95 ± 0.27 kcal/mol
27 | KEVKTITVTIEITLPDGSKIKIEKTITFVKEDGYVVVEMKIEVTDKNGKKHTFTVKVVLKLKPGQSLEELLS [r1_226_TrROS_Hall] | 2.67 ± 0.26 kcal/mol | 5.75 ± 0.42 kcal/mol | > 6 kcal/mol
28 | SAGGDGVYLIYFPAEGRFALVELDTTTKTAHVRFFGLPETLTFEVDDPLALARALTSPDFPVLVLPVSAGGS [r8_95_TrMRF] | 2.03 ± 0.049 kcal/mol | 4.17 ± 0.074 kcal/mol | 3.74 ± 0.13 kcal/mol
29 | SAGGSAGGSKEKVIEIKIKVKTKEEAKKKAEELAKELEKKGYKIKKVEIKYDKETKEVTVRIESAGGSAGGS [r20_155_TrROS_Hall] | 3.9 ± 0.2 kcal/mol | 4.02 ± 0.097 kcal/mol | 3.95 ± 0.12 kcal/mol
30 | SAGGSAGGGRYLVLIEFENGFPLAYVFPSPEDVVEHTRLLEERLGYPIKRIEVYKIDPNGKAYASAGGSAGG [r6_162_TrMRF] | 2.41 ± 0.053 kcal/mol | 2.42 ± 0.12 kcal/mol | 2.53 ± 0.086 kcal/mol
31 | SAGGGDFVEIFRIVRERAAEGHPEVRLADIERELGRPITPEQLAALRDAGLIERLPDGSYVVRIPKDRSAGG [r13_188_TrMRF] | 1.33 ± 0.049 kcal/mol | 3.98 ± 0.12 kcal/mol | 3.59 ± 0.2 kcal/mol
32 | SAGGSAGGMHINAPGSIEELEEKLGGPIAEATLEGPGTFTLTLENGVPITVSFDDPEQLEELIESAGGSAGG [r6_13_TrMRF] | 0.524 ± 0.059 kcal/mol | 0.243 ± 0.16 kcal/mol | 0.387 ± 0.18 kcal/mol
33 | SAGWNLQVNVERLPNGYVRITIMFTPDMPVEELAKELKKNFGVEVEVEFDPENGMVTVEIEIPLPPGAKSAG [r5_742_TrROS] | 1.51 ± 0.024 kcal/mol | 4.33 ± 0.11 kcal/mol | 3.69 ± 0.12 kcal/mol
34 | SAGGSAPVRVVEIDMTPEELEAALAALEAAEPGETVVVRLRLPDGGEVTLRFRRVEDGEWEVELEPSAGGSA [r15_228_TrROS_Hall] | 1.96 ± 0.058 kcal/mol | 4.39 ± 0.056 kcal/mol | 4 ± 0.11 kcal/mol
35 | SAGGSAGGKRKIEIHIIIPPGMPPEWRKKAIEIAKWFAKTLAQENNREVEIKIEIFVLDGMPPWSAGGSAGG [r6_204_TrROS] | 2.82 ± 0.19 kcal/mol | 3.71 ± 0.076 kcal/mol | 3.6 ± 0.33 kcal/mol
36 | SAGGSAGGSAAAAPAAATTTTTETRTETRVEPRLEVTITVTADSEEERLAALRLAKELLEAASAGGSAGGSA [r18_308_TrROS_Hall] | -0.921 ± 0.53 kcal/mol | 1.08 ± 0.059 kcal/mol | 0.693 ± 0.051 kcal/mol
37 | SAGGSAGGMKIEPIAEDEDYIVVRVEPDLPELLEELGLEVVGVEEEGDYVIVVVKVPPEVREKFSAGGSAGG [r6_108_TrMRF] | 0.649 ± 0.022 kcal/mol | -0.0352 ± 0.11 kcal/mol | 0.336 ± 0.11 kcal/mol
38 | SAGGGYRVTFTLTHPDGKTATVTLEFESEEEARAAAEALARAEGWDLVTLTVTPVEPPPSPRPEREGSAGGS [r8_364_JUSTAS] | 1.97 ± 0.073 kcal/mol | 4.29 ± 0.075 kcal/mol | 3.84 ± 0.12 kcal/mol
39 | SAGGKAKVIAKAEFTLPNGLKVTVEIVENEDGSLSIKIKIEPVPAPPPEKKVELSEEEKKKLEEAKKSAGGS [r16_6_TrROS_Hall] | 1.01 ± 0.052 kcal/mol | 3.8 ± 0.2 kcal/mol | 3.22 ± 0.12 kcal/mol
40 | SAGTYIEIKFKLPDGSEKTLVIEIPESENPEEWTEEKAKEIAEEIEKKLKEKGGIEALEVKIFPKEKESAGG [r19_27_JUSTAS] | 1.04 ± 0.04 kcal/mol | 3.87 ± 0.093 kcal/mol | 3.35 ± 0.12 kcal/mol
41 | SAGGSAGGSAGIVIPLDGRPIVIDMYPNGYMRIEVEPPNGKKKTRTFPGAPIEDILKAIKSAGGSAGGSAGG [r11_934_TrROS] | -0.695 ± 0.71 kcal/mol | -0.0199 ± 0.12 kcal/mol | -0.204 ± 0.28 kcal/mol
42 | SPAVSKTYPVVEPGDGVTVRVDISYNPETGKYTATITFYPRTPGGSAEAPATVTKDFASLEEVKAWIEELAS [r1_288_JUSTAS] | 1.41 ± 0.11 kcal/mol | 4.09 ± 0.1 kcal/mol | 3.74 ± 0.15 kcal/mol

Reformatted: results already given.
Row,Sequence,folding stability dG unfold [1],folding stability dG unfold [2],folding stability dG unfold [3]
1,SAGGSAGGSAGGKILVITAKIEDIPEIIEAAKKLGIDSVIIDIPETKEKIIITKDSVKLISAGGSAGGSAGG [r7_564_TrMRF],1.54 ± 0.057 kcal/mol,1.76 ± 0.089 kcal/mol,1.63 ± 0.14 kcal/mol
3,SAGGSAGGAGPPLLATVTLTLDLDVPLEEDDEITVPVPFPDGSEATITALPEENTLVVTFRVTGSAGGSAGG [r6_482_TrMRF],-1.51 ± 0.62 kcal/mol,1.39 ± 0.079 kcal/mol,0.673 ± 0.17 kcal/mol
